Laboratory results as given in the supplement of paper PMC10849652.
Some of the results follow.

Protein sequences, listed by entry. Tags and fused reporters are not part of them. Lines headed by an entry give the natural chain unless they say otherwise; changes in a name come on top.
UniProt Q9HC52: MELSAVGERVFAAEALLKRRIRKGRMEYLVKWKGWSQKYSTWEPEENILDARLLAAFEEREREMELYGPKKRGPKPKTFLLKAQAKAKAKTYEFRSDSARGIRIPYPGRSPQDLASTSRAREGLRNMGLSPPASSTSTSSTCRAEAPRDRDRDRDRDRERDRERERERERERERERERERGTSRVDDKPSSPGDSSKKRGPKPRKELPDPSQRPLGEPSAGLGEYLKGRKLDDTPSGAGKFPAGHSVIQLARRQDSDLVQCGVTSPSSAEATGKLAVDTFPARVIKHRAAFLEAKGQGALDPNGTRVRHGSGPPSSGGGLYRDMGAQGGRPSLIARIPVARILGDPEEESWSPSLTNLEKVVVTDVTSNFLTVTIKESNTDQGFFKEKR
UniProt P33681, whole entry, looked up: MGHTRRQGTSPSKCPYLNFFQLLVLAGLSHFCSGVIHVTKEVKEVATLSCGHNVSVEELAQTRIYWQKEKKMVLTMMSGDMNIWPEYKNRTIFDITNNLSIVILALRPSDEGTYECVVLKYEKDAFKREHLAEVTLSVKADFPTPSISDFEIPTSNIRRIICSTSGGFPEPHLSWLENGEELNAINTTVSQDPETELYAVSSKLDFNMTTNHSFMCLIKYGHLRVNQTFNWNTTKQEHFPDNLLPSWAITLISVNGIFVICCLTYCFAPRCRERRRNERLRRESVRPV
UniProt P42574: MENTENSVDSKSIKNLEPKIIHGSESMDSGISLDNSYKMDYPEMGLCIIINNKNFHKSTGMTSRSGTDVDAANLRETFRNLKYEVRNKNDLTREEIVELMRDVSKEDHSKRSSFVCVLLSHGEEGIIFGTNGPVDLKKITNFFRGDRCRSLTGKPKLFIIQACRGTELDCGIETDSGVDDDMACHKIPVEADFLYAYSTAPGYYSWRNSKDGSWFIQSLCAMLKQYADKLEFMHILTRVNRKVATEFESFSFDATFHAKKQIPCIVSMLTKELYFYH
UniProt Q04900: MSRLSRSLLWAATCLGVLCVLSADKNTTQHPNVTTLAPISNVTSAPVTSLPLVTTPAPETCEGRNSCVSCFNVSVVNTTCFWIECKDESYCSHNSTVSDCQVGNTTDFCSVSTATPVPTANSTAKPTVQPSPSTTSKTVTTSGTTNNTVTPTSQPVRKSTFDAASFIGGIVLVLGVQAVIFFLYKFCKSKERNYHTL
UniProt Q8N7R7: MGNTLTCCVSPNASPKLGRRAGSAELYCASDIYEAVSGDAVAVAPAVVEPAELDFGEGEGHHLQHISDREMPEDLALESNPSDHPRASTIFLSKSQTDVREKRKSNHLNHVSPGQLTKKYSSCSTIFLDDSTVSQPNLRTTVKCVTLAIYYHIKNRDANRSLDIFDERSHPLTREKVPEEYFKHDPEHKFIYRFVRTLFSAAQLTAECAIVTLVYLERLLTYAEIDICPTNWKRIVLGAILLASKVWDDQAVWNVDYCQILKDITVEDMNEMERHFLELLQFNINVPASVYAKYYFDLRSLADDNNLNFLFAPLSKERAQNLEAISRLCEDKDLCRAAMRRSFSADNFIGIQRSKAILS
UniProt O95400: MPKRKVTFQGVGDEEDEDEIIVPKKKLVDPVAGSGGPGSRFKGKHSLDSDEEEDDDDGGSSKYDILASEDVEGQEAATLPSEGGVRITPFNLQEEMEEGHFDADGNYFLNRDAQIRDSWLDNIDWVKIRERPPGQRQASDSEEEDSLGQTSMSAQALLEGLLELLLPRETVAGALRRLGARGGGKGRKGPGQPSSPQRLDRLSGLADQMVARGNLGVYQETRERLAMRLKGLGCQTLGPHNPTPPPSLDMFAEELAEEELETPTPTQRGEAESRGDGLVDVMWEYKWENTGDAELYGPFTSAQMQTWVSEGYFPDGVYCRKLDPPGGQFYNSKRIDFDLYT
UniProt Q9UK58: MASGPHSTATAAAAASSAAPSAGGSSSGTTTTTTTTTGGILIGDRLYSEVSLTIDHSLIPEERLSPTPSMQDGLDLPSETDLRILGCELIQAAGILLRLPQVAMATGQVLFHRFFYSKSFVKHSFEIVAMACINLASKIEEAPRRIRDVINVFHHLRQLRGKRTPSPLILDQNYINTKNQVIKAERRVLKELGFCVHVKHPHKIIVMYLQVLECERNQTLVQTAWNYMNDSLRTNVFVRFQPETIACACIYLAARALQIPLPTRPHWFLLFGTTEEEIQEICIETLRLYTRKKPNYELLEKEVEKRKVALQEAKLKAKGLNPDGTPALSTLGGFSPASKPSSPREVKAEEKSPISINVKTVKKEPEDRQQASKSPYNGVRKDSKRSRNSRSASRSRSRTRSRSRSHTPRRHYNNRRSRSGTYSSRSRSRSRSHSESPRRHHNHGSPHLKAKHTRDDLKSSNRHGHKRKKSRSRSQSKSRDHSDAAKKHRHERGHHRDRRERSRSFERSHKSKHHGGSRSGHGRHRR
UniProt P15529: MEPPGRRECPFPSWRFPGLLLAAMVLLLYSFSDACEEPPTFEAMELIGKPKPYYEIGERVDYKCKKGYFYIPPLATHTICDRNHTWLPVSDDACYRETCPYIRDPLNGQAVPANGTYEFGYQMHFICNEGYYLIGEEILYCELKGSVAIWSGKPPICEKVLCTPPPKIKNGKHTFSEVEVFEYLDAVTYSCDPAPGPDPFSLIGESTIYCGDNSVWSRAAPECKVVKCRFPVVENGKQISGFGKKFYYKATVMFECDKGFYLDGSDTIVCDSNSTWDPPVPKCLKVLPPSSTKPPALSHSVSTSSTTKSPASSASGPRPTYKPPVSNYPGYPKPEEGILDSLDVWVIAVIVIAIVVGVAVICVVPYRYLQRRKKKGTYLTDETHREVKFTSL
UniProt Q9BWV3: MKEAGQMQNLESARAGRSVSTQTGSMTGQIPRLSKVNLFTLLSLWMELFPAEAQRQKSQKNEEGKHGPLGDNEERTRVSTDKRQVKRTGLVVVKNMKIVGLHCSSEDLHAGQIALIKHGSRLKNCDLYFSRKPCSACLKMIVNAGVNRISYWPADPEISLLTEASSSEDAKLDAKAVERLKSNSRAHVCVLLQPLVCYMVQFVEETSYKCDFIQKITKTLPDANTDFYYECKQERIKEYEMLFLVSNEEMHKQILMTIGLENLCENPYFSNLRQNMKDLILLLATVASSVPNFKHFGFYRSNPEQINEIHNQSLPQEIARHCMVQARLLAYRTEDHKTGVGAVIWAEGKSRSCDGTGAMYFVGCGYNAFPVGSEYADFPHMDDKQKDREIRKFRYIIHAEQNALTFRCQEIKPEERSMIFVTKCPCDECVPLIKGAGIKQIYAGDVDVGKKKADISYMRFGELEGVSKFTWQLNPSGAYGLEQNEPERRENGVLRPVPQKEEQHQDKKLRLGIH
UniProt P24385, whole entry, looked up: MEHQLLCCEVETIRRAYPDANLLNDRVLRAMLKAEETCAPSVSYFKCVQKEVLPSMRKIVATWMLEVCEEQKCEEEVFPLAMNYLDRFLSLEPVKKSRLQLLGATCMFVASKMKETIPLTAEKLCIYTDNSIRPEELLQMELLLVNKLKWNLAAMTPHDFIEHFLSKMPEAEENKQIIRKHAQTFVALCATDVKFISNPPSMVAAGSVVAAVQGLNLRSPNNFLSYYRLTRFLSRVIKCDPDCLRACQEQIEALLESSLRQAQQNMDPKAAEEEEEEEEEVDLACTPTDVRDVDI
UniProt Q96S94: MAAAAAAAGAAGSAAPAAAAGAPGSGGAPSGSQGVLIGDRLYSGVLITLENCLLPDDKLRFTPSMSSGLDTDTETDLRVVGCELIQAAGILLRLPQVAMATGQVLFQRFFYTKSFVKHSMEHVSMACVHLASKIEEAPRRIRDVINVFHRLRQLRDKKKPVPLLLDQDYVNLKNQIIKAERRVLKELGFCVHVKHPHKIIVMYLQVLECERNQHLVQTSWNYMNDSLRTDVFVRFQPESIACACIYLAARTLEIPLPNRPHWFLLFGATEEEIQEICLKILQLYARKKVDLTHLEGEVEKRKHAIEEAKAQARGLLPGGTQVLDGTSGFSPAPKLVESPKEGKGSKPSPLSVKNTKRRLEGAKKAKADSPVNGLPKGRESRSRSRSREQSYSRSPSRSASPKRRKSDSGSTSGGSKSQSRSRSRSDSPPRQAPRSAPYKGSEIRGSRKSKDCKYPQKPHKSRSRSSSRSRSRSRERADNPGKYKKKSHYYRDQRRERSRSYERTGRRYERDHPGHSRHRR
UniProt Q5M9N0: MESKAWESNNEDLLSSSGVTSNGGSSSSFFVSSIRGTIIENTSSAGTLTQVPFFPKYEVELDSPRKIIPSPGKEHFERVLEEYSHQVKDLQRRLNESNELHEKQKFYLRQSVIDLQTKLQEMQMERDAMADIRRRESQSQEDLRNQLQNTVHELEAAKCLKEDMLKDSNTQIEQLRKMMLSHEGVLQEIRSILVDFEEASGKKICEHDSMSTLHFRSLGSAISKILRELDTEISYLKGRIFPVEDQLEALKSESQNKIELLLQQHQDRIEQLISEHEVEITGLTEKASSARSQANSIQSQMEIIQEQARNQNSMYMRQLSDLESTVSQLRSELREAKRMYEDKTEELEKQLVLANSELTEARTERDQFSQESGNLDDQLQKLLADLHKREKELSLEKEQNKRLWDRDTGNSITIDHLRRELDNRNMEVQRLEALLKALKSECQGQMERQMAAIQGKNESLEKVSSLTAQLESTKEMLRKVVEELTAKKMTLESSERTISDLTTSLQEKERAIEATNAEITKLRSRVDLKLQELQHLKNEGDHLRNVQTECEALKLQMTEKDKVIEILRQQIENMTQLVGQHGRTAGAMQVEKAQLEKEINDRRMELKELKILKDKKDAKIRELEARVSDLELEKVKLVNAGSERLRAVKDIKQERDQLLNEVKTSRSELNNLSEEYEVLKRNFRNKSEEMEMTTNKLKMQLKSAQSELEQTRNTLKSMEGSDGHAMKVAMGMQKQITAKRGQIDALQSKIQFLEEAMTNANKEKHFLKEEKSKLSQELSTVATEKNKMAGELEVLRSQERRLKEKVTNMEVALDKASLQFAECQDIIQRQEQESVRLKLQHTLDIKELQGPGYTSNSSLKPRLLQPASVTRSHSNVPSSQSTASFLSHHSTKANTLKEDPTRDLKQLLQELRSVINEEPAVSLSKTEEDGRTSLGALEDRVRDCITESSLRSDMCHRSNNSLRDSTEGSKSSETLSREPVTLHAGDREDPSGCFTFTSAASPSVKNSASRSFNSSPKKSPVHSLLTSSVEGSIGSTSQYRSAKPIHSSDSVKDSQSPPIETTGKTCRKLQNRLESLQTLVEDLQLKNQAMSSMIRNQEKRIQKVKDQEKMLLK
UniProt A2RUB6: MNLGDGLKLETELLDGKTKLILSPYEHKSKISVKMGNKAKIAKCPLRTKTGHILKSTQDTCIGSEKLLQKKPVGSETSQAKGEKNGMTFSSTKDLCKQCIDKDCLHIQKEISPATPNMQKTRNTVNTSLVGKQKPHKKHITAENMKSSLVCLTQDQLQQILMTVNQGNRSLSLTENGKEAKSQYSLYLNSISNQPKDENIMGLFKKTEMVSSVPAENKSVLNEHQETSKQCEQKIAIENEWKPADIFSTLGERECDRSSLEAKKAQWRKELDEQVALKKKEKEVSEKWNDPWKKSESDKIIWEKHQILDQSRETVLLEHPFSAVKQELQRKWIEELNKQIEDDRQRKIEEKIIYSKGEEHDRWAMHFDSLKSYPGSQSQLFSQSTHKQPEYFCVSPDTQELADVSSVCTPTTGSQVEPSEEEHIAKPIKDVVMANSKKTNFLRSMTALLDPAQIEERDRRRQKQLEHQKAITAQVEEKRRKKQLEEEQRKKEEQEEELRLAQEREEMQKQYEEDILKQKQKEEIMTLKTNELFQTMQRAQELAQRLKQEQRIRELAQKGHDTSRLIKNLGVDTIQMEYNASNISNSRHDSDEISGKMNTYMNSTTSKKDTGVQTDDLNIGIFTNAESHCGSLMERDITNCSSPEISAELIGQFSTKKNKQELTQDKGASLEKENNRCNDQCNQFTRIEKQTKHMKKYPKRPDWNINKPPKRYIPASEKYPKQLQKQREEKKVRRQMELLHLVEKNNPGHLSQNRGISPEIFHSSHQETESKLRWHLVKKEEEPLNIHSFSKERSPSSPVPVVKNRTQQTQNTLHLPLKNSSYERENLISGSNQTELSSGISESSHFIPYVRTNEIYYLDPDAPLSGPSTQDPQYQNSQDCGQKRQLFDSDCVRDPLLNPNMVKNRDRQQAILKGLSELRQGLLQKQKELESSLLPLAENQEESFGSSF
UniProt P21926: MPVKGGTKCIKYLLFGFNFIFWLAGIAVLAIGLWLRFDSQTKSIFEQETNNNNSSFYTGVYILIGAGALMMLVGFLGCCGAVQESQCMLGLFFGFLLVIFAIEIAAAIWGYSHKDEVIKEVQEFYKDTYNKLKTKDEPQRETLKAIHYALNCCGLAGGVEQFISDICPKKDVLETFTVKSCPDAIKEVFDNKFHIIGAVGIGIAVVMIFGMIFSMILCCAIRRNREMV

Columns and labels:
Experiment in all cases: log2 fold change, soluble protein after heating vs DMSO (PISA); higher = thermal stabilisation; K562 cells, 10 uM, 30 min; active = over 0.2 and 3.5 SD of the protein, either way, in both replicates (recomputed)
[1] = compound: CC[C@@H]1C(=O)N(C)c2cnc(Nc3ccc(C(=O)NC4CCN(C)CC4)cc3OC)nc2N1C1CCCC1
Method in brief: (§1)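 K562 cells (2×10^6 cells/mL) were treated with 10 μM compound for 30 min, and aliquots were heated for 3 min over 48°C-58°C. Pooled aliquots were extracted in PBS with 0.5% NP-40 at 4°C, and the supernatant after 21,000xg for 90 min was measured by TMTpro 16plex LC-MS/MS with channel sums equalised. Reported thermal stability, relative to control samples and from duplicates, is a log2 fold change.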

volasertib = compound: CC[C@@H]1C(=O)N(C)c2cnc(Nc3ccc(C(=O)N[C@H]4CC[C@H](N5CCN(CC6CC6)CC5)CC4)cc3OC)nc2N1C(C)C [volasertib]
Method in brief: as §1

[2] = compound: CC[C@H](C)N1C=C(C2=C(C=C(C=C21)C3=CN=C(C=C3)N4CCNCC4)C(=O)NCC5=C(C=C(NC5=O)C)C)C
Method in brief: as §1

epoxomicin = compound: CC[C@H](C)[C@@H](C(=O)N[C@@H]([C@@H](C)O)C(=O)N[C@@H](CC(C)C)C(=O)[C@]1(CO1)C)NC(=O)[C@H]([C@@H](C)CC)N(C)C(=O)C [epoxomicin]
Method in brief: as §1

[3] = compound: CCn1cc(-c2ccnc3[nH]c(-c4cccc(CN(C)C)c4)cc23)c(-c2ccc(NC(=O)N(C)C)cc2)n1
Method in brief: as §1

[4] = compound: CN1C2=C(C3=C1C(=O)N(N=C3)CC4=CC(=CC=C4)N)SC(=C2)S(=O)C
Method in brief: as §1

[5] = compound: CN1CCC(CNc2ccc3ncc(-c4cccc(OC(F)(F)F)c4)n3n2)CC1
Method in brief: as §1

saracatinib = compound: CN1CCN(CCOc2cc(OC3CCOCC3)c3c(Nc4c(Cl)ccc5c4OCO5)ncnc3c2)CC1 [saracatinib]
Method in brief: as §1

sotrastaurin = compound: CN1CCN(c2nc(C3=C(c4c[nH]c5ccccc45)C(=O)NC3=O)c3ccccc3n2)CC1 [sotrastaurin]
Method in brief: as §1

Tubastatin A = compound: CN1CCc2c(c3ccccc3n2Cc2ccc(C(=O)NO)cc2)C1 [Tubastatin A]
Method in brief: as §1

rucaparib = compound: CNCc1ccc(-c2[nH]c3cc(F)cc4c3c2CCNC4=O)cc1 [rucaparib]
Method in brief: as §1

[6] = compound: CNc1nc(-c2ccc3c(N)n[nH]c3c2)cc(N2C[C@@H](C(=O)NC3CCCCC3)CC[C@H]2C)n1
Method in brief: as §1

encorafenib = compound: COC(=O)N[C@@H](C)CNc1nccc(-c2cn(C(C)C)nc2-c2cc(Cl)cc(NS(C)(=O)=O)c2F)n1 [encorafenib]
Method in brief: as §1

alvocidib = compound: CN1CC[C@H](c2c(O)cc(O)c3c(=O)cc(-c4ccccc4Cl)oc23)[C@H](O)C1 [alvocidib]
Method in brief: as §1

[7] = compound: CCn1c(C(=O)N(C2CC2)C2CC2)cc2c3c(ncn3C)c(Nc3cc(C)n(C)n3)nc21
Method in brief: as §1

[8] = compound: CNC(=O)C1=CC=CC=C1NC2=NC(=NC=C2Cl)NC3=C(C=C(C=C3)N4CCOCC4)OC
Method in brief: as §1

[9] = compound: CN(C)CC(=O)Nc1ccc2[nH]c(=O)c3ccccc3c2c1
Method in brief: as §1

defactinib = compound: CNC(=O)c1ccc(Nc2ncc(C(F)(F)F)c(NCc3nccnc3N(C)S(C)(=O)=O)n2)cc1 [defactinib]
Method in brief: as §1

[10] = compound: COC(=O)[C@H](CCSC)NC(=O)C1=C(C=C(C=C1)NC[C@H](CS)N)C2=CC=CC=C2
Method in brief: as §1

rosiglitazone = compound: CN(CCOC1=CC=C(C=C1)C[C@H]2C(=O)NC(=O)S2)C3=CC=CC=N3 (racemic) [rosiglitazone]
Method in brief: as §1

Measured: log2 fold change

CCNT2 (UniProt O60583)
inactive: [1] 0.035 | volasertib -0.096 | [2] 0.056 | epoxomicin 0.004 | [3] -0.084 | [4] 0.023 | [5] -0.101 | saracatinib -0.016 | sotrastaurin -0.372 | Tubastatin A 0.157 | rucaparib -0.112 | [6] 0.04 | encorafenib 0.119

CBX8 (UniProt Q9HC52)
inactive: [1] -0.382 | [4] 0.282 | saracatinib -0.102 | alvocidib -0.101 | rucaparib 0.124 | [6] -0.139 | encorafenib 0.051

CD80 (UniProt P33681)
inactive: [1] 0.04 | volasertib 0.064 | [2] -0.055 | [7] -0.194 | [3] 0.137 | [4] -0.081 | [5] 0.294 | saracatinib 0.087 | sotrastaurin -0.038 | alvocidib 0.014 | Tubastatin A -0.011 | [8] 0.009 | rucaparib 0.115 | [6] 0.057 | encorafenib -0.066

CASP3 (UniProt P42574)
inactive: [1] 0.012 | volasertib 0.014 | [2] -0.033 | [3] 0.018 | [9] -0.021 | [4] -0.097 | [5] 0.019 | saracatinib 0.107 | sotrastaurin 0.048 | Tubastatin A 0.066 | [8] -0.024 | defactinib -0.002 | rucaparib -0.062 | [6] 0.001 | encorafenib -0.014 | [10] -0.004
active: epoxomicin 0.273

CD164 (UniProt Q04900)
inactive: [1] -0.051 | [2] 0.165 | epoxomicin 0.037 | [7] -0.188 | [3] -0.028 | [9] 0.182 | rosiglitazone 0.005 | [5] -0.161 | sotrastaurin -0.123 | alvocidib -0.074 | [8] -0.054 | defactinib 0.023 | rucaparib 0.071 | encorafenib 0.045 | [10] 0.03

CCNYL1 (UniProt Q8N7R7)
inactive: [1] -0.01 | [2] 0.042 | epoxomicin -0.03 | [7] 0.089 | [3] 0.019 | rosiglitazone -0.04 | [4] -0.132 | [5] 0.121 | saracatinib 0 | sotrastaurin -0.005 | alvocidib 0.037 | [8] -0.054 | rucaparib 0.099 | [6] -0.097 | encorafenib 0.138

CD33 (UniProt P20138)
inactive: [1] -0.063 | volasertib 0.088 | epoxomicin -0.118 | [7] -0.034 | [3] -0.009 | [9] -0.023 | [4] 0.024 | [5] 0.118 | saracatinib 0.094 | sotrastaurin 0.128 | Tubastatin A -0.07 | [8] -0.043 | defactinib -0.034 | rucaparib 0.057 | [6] 0.001 | encorafenib 0.079 | [10] 0.081

CDC37 (UniProt K7EKQ2)
inactive: [1] -0.091 | epoxomicin 0.29 | rosiglitazone -0.167 | sotrastaurin -0.276 | rucaparib -0.095 | encorafenib 0.044

CD2BP2 (UniProt O95400)
inactive: volasertib -0.118 | epoxomicin -0.025 | [7] 0.093 | [9] 0.064 | rosiglitazone -0.111 | [4] -0.076 | saracatinib 0.11 | Tubastatin A -0.029 | [8] -0.008 | defactinib -0.33 | [6] -0.172 | [10] 0.214

CCNL1 (UniProt Q9UK58)
inactive: [8] -0.179

CD46 (UniProt P15529)
inactive: [9] 0.11 | rosiglitazone -0.08 | [4] -0.062 | saracatinib -0.038 | sotrastaurin -0.017 | defactinib 0.108 | [6] 0.08 | [10] -0.115

CDC27 (UniProt G5EA36)
inactive: volasertib -0.152 | epoxomicin -0.069 | [7] 0.061 | alvocidib 0 | Tubastatin A 0.13 | [8] -0.036

CDADC1 (UniProt Q9BWV3)
inactive: [9] 0.254 | defactinib 0.106 | [10] -0.059

CCND1 (UniProt P24385)
inactive: sotrastaurin -0.127

CCNL2 (UniProt Q96S94)
inactive: [2] 0.23 | epoxomicin 0.261 | sotrastaurin 0

CAV1 (UniProt F8WDM7)
inactive: alvocidib 0.055

CD84 (UniProt Q9UIB8)
active: [6] 0.56
inactive: epoxomicin -0.009 | [4] -0.077 | saracatinib -0.012 | sotrastaurin -0.144 | Tubastatin A -0.039 | [8] -0.119

CCDC158 (UniProt Q5M9N0)
inactive: volasertib 0.16 | [2] 0.02 | epoxomicin -0.175 | [7] 0.102 | [3] 0.06 | [9] -0.149 | rosiglitazone -0.03 | [4] 0.024 | [5] 0.074 | saracatinib 0.034 | sotrastaurin 0.087 | alvocidib 0.373 | [8] 0.081 | defactinib 0.167 | [6] 0.007 | [10] 0.098

CCDC66 (UniProt A2RUB6)
inactive: [2] 0.15 | epoxomicin 0.02 | [3] 0.04 | [5] 0.038

Two neighbouring entries from above, quoted:
CD46 (UniProt P15529)
inactive: [9] 0.11 | rosiglitazone -0.08 | [4] -0.062 | saracatinib -0.038 | sotrastaurin -0.017 | defactinib 0.108 | [6] 0.08 | [10] -0.115

CDC27 (UniProt G5EA36)
inactive: volasertib -0.152 | epoxomicin -0.069 | [7] 0.061 | alvocidib 0 | Tubastatin A 0.13 | [8] -0.036

The results go on:

CD9 (UniProt P21926)
inactive: epoxomicin -0.2 | [3] -0.389 | [4] -0.292 | [5] -0.051 | saracatinib -0.235 | sotrastaurin -0.011 | alvocidib -0.004 | Tubastatin A -0.055 | [6] 0.145
